# Measured values reported in PMC10005780.
# Chains of the proteins cited; added tags and fusions are not shown.
# UniProt P61026: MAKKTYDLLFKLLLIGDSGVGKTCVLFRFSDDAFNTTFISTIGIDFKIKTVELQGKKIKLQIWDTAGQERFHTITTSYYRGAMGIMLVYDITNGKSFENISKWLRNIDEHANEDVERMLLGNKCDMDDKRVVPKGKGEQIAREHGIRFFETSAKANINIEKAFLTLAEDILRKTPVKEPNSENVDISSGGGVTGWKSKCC
# UniProt Q9NQT8: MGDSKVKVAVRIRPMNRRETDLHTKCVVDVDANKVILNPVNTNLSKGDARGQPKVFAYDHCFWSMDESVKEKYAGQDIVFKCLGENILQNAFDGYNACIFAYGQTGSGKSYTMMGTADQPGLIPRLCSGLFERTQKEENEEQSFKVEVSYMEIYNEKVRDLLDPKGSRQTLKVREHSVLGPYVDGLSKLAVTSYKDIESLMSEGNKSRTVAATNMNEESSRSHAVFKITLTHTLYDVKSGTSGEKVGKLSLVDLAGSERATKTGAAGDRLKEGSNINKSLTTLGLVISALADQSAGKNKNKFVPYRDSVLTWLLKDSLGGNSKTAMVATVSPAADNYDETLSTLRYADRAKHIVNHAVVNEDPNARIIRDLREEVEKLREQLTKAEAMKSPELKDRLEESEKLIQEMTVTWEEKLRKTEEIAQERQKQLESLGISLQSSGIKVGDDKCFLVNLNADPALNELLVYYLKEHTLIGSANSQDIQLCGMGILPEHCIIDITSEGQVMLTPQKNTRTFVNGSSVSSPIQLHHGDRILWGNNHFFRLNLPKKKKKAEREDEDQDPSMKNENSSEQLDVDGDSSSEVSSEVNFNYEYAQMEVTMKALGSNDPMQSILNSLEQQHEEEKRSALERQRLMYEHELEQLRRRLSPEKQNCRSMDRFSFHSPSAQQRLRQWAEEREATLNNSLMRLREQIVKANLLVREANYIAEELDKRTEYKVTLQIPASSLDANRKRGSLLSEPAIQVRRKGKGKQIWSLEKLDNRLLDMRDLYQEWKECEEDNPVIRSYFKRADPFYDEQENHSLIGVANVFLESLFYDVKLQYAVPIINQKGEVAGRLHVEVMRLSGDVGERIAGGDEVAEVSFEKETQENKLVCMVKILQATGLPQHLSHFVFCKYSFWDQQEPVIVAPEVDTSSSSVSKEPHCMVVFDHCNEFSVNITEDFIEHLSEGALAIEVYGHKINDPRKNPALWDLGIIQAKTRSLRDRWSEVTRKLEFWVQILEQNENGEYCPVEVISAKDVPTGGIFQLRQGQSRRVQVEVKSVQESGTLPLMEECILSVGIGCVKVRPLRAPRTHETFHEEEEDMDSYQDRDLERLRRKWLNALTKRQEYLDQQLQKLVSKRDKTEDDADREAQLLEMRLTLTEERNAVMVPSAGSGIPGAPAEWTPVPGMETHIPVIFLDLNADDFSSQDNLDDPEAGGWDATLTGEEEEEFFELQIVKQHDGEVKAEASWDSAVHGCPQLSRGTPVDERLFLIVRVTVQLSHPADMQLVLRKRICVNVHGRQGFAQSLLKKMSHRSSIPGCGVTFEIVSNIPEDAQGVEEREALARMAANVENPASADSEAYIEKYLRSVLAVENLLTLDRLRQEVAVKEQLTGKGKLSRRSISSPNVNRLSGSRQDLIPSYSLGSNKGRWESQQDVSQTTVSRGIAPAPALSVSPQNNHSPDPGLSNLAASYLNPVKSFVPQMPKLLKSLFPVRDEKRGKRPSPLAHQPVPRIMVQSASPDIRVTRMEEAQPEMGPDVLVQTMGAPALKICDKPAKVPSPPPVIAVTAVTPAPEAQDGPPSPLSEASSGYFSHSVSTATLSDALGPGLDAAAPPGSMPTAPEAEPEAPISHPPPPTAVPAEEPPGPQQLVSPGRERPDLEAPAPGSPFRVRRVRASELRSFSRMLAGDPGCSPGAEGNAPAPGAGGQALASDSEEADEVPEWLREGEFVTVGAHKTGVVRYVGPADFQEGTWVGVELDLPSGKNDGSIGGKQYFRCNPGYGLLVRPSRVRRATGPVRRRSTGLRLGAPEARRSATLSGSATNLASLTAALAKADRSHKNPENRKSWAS
# No constants are given. Whether binding was seen depends on the method and setting. Binding seen in cells or lysates may run through a third protein. Some binding calls cover weakened binding; strength is not graded here.
# Molecular target: HA-Rab10 WT (UniProt P61026)
# Assay: co-IP; Lysates of N2A cells co-transfected with HA-Rab10 and GFP-KIF13B, starved 1 hr, stimulated or not with 50 ng/mL BDNF for 30 min; anti-HA magnetic beads overnight at 4°C; 25 mM MOPS pH 7.2, 100 mM KCl, 10 mM MgCl2, 0.5% IGEPAL CA-630; Western blot with anti-HA and anti-GFP; more KIF13B co-precipitated with BDNF (average twofold increase of the KIF13B/Rab10 ratio)
substance,measurement,value
GFP-KIF13B (from UniProt Q9NQT8 1-1826),binding,binds
